Reference: paper PMC8954978
No constants are given. Whether binding was seen depends on the method and setting. Binding seen in cells or lysates may run through a third protein. Some entries that bind do so weakly or less than the wild type.

By UniProt entry, the sequences of proteins in these tests, tags left out.
UniProt O15078: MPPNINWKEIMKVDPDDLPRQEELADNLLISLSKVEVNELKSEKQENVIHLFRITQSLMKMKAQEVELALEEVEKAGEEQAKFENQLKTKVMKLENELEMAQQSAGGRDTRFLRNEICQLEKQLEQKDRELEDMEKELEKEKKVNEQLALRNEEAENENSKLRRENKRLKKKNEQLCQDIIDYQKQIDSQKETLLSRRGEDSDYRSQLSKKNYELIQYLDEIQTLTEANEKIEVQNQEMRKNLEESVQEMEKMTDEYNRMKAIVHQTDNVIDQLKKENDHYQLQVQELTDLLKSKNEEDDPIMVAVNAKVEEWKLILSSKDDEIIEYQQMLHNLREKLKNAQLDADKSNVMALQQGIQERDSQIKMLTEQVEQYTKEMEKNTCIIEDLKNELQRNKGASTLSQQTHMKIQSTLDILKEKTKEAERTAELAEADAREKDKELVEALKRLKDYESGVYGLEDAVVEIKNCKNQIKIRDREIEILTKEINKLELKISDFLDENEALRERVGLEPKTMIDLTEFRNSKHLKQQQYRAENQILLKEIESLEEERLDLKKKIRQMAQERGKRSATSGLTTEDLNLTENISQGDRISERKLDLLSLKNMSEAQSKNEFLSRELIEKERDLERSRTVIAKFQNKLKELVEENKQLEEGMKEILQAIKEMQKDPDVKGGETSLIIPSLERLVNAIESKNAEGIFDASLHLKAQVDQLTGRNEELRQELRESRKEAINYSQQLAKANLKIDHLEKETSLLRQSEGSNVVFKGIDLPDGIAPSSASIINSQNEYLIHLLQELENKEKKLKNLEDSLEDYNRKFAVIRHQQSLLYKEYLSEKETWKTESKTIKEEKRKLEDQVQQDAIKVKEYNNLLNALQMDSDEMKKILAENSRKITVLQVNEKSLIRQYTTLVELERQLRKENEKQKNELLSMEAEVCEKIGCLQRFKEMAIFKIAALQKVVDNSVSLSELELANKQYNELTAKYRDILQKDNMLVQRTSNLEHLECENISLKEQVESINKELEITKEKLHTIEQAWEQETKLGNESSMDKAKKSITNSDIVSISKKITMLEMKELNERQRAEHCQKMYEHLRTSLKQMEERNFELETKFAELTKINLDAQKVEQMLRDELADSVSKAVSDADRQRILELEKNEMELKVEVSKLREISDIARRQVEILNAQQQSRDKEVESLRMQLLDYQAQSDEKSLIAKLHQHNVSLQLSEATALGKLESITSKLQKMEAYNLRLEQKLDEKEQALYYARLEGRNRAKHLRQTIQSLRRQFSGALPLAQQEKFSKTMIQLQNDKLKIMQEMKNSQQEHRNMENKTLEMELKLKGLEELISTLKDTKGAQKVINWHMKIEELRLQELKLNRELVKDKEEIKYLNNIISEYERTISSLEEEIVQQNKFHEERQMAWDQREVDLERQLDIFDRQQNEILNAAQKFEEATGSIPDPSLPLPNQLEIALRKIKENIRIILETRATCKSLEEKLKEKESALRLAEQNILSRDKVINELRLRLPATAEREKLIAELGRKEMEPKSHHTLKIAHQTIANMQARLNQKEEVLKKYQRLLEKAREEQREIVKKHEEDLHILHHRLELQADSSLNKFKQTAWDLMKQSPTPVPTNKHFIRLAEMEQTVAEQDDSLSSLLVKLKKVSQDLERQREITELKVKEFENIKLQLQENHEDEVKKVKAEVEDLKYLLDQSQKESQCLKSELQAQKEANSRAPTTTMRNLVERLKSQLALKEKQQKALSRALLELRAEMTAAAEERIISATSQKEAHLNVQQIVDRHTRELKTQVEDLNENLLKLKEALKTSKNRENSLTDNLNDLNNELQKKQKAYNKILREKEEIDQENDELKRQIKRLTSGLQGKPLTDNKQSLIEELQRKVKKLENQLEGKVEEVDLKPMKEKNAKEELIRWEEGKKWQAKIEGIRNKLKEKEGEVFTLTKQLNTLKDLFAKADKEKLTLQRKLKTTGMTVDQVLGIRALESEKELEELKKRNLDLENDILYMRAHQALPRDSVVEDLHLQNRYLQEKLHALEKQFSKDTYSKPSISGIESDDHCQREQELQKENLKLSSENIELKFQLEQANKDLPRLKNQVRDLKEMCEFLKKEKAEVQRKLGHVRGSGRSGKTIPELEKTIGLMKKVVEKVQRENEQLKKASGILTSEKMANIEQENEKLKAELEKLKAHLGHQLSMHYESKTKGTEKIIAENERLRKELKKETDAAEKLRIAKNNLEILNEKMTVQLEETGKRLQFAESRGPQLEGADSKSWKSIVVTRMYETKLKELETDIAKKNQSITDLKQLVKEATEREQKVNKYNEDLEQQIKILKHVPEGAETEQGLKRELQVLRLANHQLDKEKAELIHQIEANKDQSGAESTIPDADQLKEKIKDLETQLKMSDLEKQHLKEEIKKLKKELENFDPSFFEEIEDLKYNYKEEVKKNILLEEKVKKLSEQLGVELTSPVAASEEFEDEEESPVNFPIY

Molecular target: centrosomal protein 290 (human (endogenous in Hep3B)) (UniProt O15078)
Test: co-IP; CoIP in Hep3B cells, with Hep3B CEP290-/- (CRISPR knockout) cells generated for the CoIP experiments; detection by WB; which protein was precipitated is not told

B1: Nrf2 (protein, UniProt Q16236 1-605)
chain: MMDLELPPPGLPSQQDMDLIDILWRQDIDLGVSREVFDFSQRRKEYELEKQKKLEKERQEQLQKEQEKAFFAQLQLDEETGEFLPIQPAQHIQSETSGSANYSQVAHIPKSDALYFDDCMQLLAQTFPFVDDNEVSSATFQSLVPDIPGHIESPVFIATNQAQSPETSVAQVAPVDLDGMQQDIEQVWEELLSIPELQCLNIENDKLVETTMVPSPEAKLTEVDNYHFYSSIPSMEKEVGNCSPHFLNAFEDSFSSILSTEDPNQLTVNSLNSDATVNTDFGDEFYSAFIAEPSISNSMPSPATLSHSLSELLNGPIDVSDLSLCKAFNQNHPESTAEFNDSDSGISLNTSPSVASPEHSVESSSYGDTLLGLSDSEVEELDSAPGSVKQNGPKTPVHSSGDMVQPLSPSQGQSTHVHDAQCENTPEKELPVSPGHRKTPFTKDKHSSRLEAHLTRDELRAKALHIPFPVEKIINLPVVDFNEMMSKEQFNEAQLALIRDIRRRGKNKVAAQNCRKRKLENIVELEQDLDHLKDEKEKLLKEKGENDKSLHLLKKQLSTLYLEVFSMLRDEDGKPYSPSEYSLQQTRDGNVFLVPKSKKPDVKKN
  binding: binds
